Experimental data: PubChem BioAssay AID1259286 (Sanger Institute, 2017)
Aim: 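Kinases whose loss adds to targeted drug killing of colorectal cancer cells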 (primary screen). Cell system: NCI-H630 human colorectal cancer cells. Knock-down reagent: siRNA pool against human genes. Treatment: anchor drugs BYL719 at 1 µM, cetuximab at 5 µg/ml or trametinib at 10 nM, or DMSO vehicle alone; exposure time not given. Detection: 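Replicate-averaged viability as a fraction of non-targeting control, knock-down-alone robust z-score, and per-drug synergy scores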. Scale: viability z-score, knock-down alone: higher = more viable cells, weaker knock-down effect. Call rule: 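Essential call: robust z-score of viability with siRNA alone lower than -3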. Meaning of the calls: active = essential when knocked down alone; inactive = not essential alone.
The deposit covers 794 reagents; below is an unselected part. 17 of them (2.1%) count as active. 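Calls use knock-down alone only; synergy above 0.15 marked separately; viability seems capped at control level; exposure time not given.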 Unmarked entries are inactive. Not all columns of the deposit are shown. Reagent sequences are not shown. The record does not give: the amount of reagent, the time to read-out.

Silencing of DAPK1 resulted in: viability z-score, knock-down alone 0.464.
MARK2 scored viability z-score, knock-down alone 0.262.
With knock-down of FGFR4 the results were viability z-score, knock-down alone 0.464.
TRIB2 showed viability z-score, knock-down alone 0.142.
After knock-down of PFKFB3, the screen gave viability z-score, knock-down alone -0.445.
Against MET, the entry reads viability z-score, knock-down alone 0.464.
Knock-down of SCYL1 came out at: viability z-score, knock-down alone 0.464.
For SMC1A, the values are viability z-score, knock-down alone 0.464.
Silencing of MATK resulted in: viability z-score, knock-down alone 0.464.
Depletion of EPHA2 gave: viability z-score, knock-down alone 0.464.
Silencing of PCK1 came out at: viability z-score, knock-down alone -0.902.
ATR scored viability z-score, knock-down alone 0.464.
Knock-down of AKT2 gave: viability z-score, knock-down alone 0.464.
For CDKL1 the deposit lists viability z-score, knock-down alone 0.464.
After knock-down of ACVR1C, the record shows viability z-score, knock-down alone 0.464.
For AXIN2, the values are viability z-score, knock-down alone 0.183.
CLK2 scored viability z-score, knock-down alone 0.464.
With knock-down of TP53, the screen gave viability z-score, knock-down alone 0.091.
For AXL the deposit lists viability z-score, knock-down alone 0.464.
CDC7 showed viability z-score, knock-down alone -1.57.
After knock-down of ADK, the record shows viability z-score, knock-down alone 0.464.
WNK1 showed viability z-score, knock-down alone 0.464.
After knock-down of ZC3H11A, the screen gave viability z-score, knock-down alone 0.464.
For NME2, the values are viability z-score, knock-down alone 0.464.
With knock-down of HIPK3 the results were viability z-score, knock-down alone 0.0417.
For CSNK1G1, the values are viability z-score, knock-down alone 0.423.
Depletion of CAMK2D gave: viability z-score, knock-down alone -0.264.
CSNK2A1 scored viability z-score, knock-down alone 0.464.

3 entries from above, set out differently.
PFKFB3
- viability z-score, knock-down alone: -0.445

MET
- viability z-score, knock-down alone: 0.464

SCYL1
- viability z-score, knock-down alone: 0.464
